# PubChem BioAssay AID1671195 – Yale University – 2021
# Assay: 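Genes whose knockdown alters LDL uptake in liver cancer cells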 (primary screen)
# Cells: human Huh7 hepatoma cells
# Reagents: siRNA pool against human genes, 18 nM
# Timing: about 2 to 2.5 days of knockdown, then 8 h LDL uptake
# Treatment: DiI-labelled LDL at 30 µg/ml for 8 h, in lipoprotein-deficient serum medium
# Measured: 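Per-cell DiI-LDL intensity by automated imaging; well means scaled to the plate median and given as a robust z-score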
# Direction: robust z-score: higher = more LDL uptake after knockdown
# Active means: 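a gene counts as active if at least two replicate z-scores exceed ±2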
# Here is a random part of about 22,000 reagents tested. About 1,510 of them (6.9%) count as active. 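Active includes knockdowns raising or lowering LDL uptake; positive z-scores mean more uptake, negative mean less.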 Entries without a mark were called inactive. No sequences are given here.
gene,"robust z-score, replicate 1","robust z-score, replicate 2","robust z-score, replicate 3"
CALR4P (GeneID 441884),0.474,0.762,1.28
HSPA8P11 (GeneID 392209),-0.0875,-0.187,0.24
DDX24 (GeneID 57062),0.553,-0.951,-0.869
APOL3 (GeneID 80833),0.178,1.05,0.948
MCMBP (GeneID 79892),0.0274,-0.591,-0.601
ARHGEF26 (GeneID 26084),-1.22,-0.618,1.08
PDE1C (GeneID 5137),3.09,0.339,1.4
CR1L (GeneID 1379),-1,0.0438,-0.69
FAM167A (GeneID 83648),-1.14,-0.939,-1.41
ZNF81 (GeneID 347344),-1.04,-1.11,-0.979
ZBTB41 (GeneID 360023),-2.66 (active),-2.7,-2.67
CCDC102B (GeneID 79839),-1.12,-1.16,-0.734
OR4C15 (GeneID 81309),-0.725,-0.959,-1.11
VAT1L (GeneID 57687),0.124,-0.147,-0.52
GMEB1 (GeneID 10691),1.87,-1.06,-0.138
SHE (GeneID 126669),1.27,0.562,-0.312
GOLGA6B (GeneID 55889),-1.27,0.00796,-1.45
ZNF224 (GeneID 7767),0.756,1.41,0.336
LMOD3 (GeneID 56203),-2.44 (active),-2.94,-0.895
LOC442073 (retired record) (GeneID 442073),-0.867,-0.619,-0.795
RPL7A (GeneID 6130),-1.91,-1.21,-1.88
COPE (GeneID 11316),-0.244,-0.886,0.0645
CCDC3 (GeneID 83643),-0.747,-0.662,-0.921
C22orf42 (GeneID 150297),0.715,-0.139,1.13
IQCK (GeneID 124152),1.23,0.0288,0.262
CYRIA (GeneID 81553),-0.916,-0.65,-0.65
POM121L8P (GeneID 29797),-0.146,-0.412,-2.01
LOC388629 (retired record) (GeneID 388629),0.59,0.51,0.174

Records above whose gene name starts with P or p (2):
gene,"robust z-score, replicate 1","robust z-score, replicate 2","robust z-score, replicate 3"
PDE1C (GeneID 5137),3.09,0.339,1.4
POM121L8P (GeneID 29797),-0.146,-0.412,-2.01
